Assay results as given in patent publication US20260171190A1, “ASSESSMENT OF GR CELLULAR SIGNALING PATHWAY ACTIVITY USING MATHEMATICAL MODELLING OF TARGET GENE EXPRESSION” (priority 2021, published 2026).
At least one structure is not confirmed: it was looked up by name or label, or the drawing left a doubt.

What was measured:
[1] = tested on: GR cellular signaling pathway; test: GR pathway activity score, MM1S multiple myeloma cells (GSE30644); format: cell-based; conditions: six hours
[2] = tested on: GR cellular signaling pathway; test: GR pathway activity score, MCF-7 cells (GSE79761); format: cell-based; conditions: MCF7 breast cancer epithelial cell line; 4 h; normalized 0-100 scale

## C[C@@H]1C[C@H]2[C@@H]3CCC4=CC(=O)C=C[C@]4(C)[C@@]3(F)[C@@H](O)C[C@]2(C)[C@@]1(O)C(=O)CO [dexamethasone, 9α-fluoro-11β,17α,21-trihydroxy-16α-methylpregna-1,4-diene-3,20-dione]
[1]
  change in GR pathway activity score: increase
[2]
  change in GR pathway activity score: increase
